Where a chain is given by its changes, count along the chain named. No constants are given. Whether binding was seen depends on the method and setting. In cells and extracts the contact can be indirect. Some entries that bind do so weakly or less than the wild type. Sequences can lack the tags named with a protein.

Experiment [1] concerns the target T1, GST-tagged mouse BRCA2 fragment (I2327-Q2379), F2351D variant (mouse) (UniProt P97929).
T1 sequence: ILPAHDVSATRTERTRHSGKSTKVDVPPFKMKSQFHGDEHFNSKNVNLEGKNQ
Kind of experiment: pull-down.

Experiment [2] has as its target T2, GST-tagged mouse BRCA2 fragment (I2327-Q2379), corresponding to human F2s3 (mouse) (UniProt P97929).
T2 sequence: T1 sequence with D25F
Description: pull-down.

B1: mouse his-DMC1 (protein, UniProt Q61880 1-340)
chain: MKEDQVVQEESGFQDDEESLFQDIDLLQKHGINMADIKKLKSVGICTIKGIQMTTRRALCNVKGLSEAKVEKIKEAANKLIEPGFLTAFQYSERRKMVFHITTGSQEFDKLLGGGIESMAITEAFGEFRTGKTQLSHTLCVTAQLPGTGGYSGGKIIFIDTENTFRPDRLRDIADRFNVDHEAVLDNVLYARAYTSEHQMELLDYVAAKFHEEAGIFKLLIIDSIMALFRVDFSGRGELAERQQKLAQMLSRLQKISEEYNVAVFVTNQMTADPGATMTFQADPKKPIGGHILAHASTTRISLRKGRGELRIAKIYDSPEMPENEATFAITAGGIGDAKE
Regarding B1, the binding entry in experiment [1] is reported as “no binding”; in experiment [2] it was “binds”.

For the origin of these results see doi:10.1101/2023.10.06.561239 (bioRxiv, 2023).
